# In the supplement of paper PMC12819154, “High-throughput peptide-centric local stability assay extends protein–ligand identification to membrane proteins, tissues and bacteria” (Nature Structural & Molecular Biology, 2025):
# Chains of the proteins cited; added tags and fusions are not shown. Lines headed by an entry give the natural chain unless they say otherwise; changes in a name come on top.
# UniProt Q61211: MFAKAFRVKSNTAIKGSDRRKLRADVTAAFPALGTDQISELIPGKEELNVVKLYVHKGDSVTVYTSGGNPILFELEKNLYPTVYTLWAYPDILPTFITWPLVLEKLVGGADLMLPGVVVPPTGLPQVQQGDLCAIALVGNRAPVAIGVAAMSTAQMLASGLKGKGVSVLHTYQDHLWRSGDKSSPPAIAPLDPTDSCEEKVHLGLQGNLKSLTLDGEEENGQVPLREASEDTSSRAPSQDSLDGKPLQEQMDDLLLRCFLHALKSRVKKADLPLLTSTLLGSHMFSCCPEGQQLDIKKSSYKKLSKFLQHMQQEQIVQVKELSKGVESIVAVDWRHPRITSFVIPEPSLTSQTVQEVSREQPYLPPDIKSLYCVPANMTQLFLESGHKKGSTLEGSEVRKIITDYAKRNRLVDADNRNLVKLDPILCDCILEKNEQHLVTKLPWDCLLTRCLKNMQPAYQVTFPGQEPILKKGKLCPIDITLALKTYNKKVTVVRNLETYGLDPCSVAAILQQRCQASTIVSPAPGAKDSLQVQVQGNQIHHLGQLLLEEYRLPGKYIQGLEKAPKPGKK
# UniProt Q60766: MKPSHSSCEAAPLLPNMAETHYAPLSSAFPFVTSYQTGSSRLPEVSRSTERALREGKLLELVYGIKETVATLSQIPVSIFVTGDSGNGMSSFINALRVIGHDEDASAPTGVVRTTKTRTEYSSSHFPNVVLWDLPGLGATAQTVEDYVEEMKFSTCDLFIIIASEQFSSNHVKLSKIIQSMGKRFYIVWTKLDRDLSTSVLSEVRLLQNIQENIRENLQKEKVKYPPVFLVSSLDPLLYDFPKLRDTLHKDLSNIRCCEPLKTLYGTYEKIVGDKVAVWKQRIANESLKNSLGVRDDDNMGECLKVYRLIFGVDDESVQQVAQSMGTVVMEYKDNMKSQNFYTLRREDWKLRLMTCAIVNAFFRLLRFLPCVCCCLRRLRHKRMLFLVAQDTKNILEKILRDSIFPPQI
# UniProt Q61072: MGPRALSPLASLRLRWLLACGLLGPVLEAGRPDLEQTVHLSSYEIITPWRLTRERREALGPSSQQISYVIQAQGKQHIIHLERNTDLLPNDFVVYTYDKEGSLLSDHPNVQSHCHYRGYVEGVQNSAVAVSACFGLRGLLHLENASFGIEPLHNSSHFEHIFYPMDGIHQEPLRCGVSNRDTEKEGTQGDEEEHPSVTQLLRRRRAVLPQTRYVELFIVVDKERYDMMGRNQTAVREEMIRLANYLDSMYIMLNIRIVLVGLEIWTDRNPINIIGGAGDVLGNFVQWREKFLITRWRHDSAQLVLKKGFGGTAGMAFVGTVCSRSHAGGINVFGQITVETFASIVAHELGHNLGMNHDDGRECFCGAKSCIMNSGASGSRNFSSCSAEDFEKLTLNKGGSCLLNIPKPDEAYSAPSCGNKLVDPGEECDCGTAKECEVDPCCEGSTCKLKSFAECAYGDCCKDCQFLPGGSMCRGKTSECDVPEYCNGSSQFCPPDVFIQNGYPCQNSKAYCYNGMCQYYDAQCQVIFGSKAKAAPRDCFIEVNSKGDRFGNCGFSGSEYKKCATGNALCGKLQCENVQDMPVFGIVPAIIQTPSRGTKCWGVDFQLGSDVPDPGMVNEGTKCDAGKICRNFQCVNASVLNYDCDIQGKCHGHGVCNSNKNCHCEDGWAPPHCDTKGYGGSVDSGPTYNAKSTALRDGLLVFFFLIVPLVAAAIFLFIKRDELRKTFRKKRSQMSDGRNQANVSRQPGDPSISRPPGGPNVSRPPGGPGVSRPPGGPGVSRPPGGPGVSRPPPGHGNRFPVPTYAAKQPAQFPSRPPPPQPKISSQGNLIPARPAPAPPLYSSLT
# UniProt Q60838: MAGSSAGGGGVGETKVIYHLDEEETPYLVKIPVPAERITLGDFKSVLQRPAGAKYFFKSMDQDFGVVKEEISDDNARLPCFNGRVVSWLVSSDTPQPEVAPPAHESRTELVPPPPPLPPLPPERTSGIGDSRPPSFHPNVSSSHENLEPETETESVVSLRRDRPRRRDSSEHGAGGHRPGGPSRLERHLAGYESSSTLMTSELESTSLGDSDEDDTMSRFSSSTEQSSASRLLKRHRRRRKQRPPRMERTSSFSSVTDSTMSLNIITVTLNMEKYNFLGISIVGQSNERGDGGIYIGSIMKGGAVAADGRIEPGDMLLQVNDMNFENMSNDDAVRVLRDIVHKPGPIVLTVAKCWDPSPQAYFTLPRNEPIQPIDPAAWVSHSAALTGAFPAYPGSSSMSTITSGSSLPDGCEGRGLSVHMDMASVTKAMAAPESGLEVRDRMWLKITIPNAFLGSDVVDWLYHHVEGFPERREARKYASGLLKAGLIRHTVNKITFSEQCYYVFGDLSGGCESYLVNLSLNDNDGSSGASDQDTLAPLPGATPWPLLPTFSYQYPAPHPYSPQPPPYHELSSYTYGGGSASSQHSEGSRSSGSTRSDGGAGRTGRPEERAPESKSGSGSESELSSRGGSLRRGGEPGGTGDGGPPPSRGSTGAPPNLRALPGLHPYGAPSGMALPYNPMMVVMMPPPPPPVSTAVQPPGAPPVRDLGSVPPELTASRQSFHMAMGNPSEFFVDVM
# UniProt Q5EBG8: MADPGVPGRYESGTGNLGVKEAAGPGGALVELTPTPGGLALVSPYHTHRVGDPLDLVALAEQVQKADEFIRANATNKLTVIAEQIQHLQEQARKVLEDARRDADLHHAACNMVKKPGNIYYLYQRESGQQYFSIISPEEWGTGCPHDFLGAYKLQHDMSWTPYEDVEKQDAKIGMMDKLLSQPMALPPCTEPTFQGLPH
# UniProt Q5RJ54: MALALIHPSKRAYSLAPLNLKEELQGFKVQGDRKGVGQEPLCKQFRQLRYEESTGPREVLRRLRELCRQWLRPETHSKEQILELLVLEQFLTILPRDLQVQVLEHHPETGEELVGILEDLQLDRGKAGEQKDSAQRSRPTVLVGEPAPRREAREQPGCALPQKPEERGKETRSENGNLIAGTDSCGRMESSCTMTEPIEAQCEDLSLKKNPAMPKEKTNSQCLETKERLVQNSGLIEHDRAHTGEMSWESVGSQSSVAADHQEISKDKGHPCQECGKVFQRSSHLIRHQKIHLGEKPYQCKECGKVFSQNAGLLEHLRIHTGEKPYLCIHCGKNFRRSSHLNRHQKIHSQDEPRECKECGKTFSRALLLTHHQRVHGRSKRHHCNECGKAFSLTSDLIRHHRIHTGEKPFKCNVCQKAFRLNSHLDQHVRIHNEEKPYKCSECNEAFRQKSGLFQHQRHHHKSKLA
# UniProt Q5U405: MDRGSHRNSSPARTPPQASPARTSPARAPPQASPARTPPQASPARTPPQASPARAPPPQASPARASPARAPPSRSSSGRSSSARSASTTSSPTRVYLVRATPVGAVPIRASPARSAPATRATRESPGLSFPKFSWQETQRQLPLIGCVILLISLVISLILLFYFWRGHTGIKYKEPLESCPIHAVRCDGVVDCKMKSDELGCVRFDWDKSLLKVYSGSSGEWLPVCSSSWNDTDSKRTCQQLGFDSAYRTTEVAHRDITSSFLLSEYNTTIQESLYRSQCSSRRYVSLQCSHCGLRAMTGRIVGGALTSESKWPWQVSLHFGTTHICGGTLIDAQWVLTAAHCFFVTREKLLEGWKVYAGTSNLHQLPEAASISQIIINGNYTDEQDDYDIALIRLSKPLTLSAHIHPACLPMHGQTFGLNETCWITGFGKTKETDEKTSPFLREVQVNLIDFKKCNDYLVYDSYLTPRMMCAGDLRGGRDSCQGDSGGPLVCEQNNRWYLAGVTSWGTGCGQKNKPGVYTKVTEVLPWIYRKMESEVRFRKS
# UniProt Q5SPW0: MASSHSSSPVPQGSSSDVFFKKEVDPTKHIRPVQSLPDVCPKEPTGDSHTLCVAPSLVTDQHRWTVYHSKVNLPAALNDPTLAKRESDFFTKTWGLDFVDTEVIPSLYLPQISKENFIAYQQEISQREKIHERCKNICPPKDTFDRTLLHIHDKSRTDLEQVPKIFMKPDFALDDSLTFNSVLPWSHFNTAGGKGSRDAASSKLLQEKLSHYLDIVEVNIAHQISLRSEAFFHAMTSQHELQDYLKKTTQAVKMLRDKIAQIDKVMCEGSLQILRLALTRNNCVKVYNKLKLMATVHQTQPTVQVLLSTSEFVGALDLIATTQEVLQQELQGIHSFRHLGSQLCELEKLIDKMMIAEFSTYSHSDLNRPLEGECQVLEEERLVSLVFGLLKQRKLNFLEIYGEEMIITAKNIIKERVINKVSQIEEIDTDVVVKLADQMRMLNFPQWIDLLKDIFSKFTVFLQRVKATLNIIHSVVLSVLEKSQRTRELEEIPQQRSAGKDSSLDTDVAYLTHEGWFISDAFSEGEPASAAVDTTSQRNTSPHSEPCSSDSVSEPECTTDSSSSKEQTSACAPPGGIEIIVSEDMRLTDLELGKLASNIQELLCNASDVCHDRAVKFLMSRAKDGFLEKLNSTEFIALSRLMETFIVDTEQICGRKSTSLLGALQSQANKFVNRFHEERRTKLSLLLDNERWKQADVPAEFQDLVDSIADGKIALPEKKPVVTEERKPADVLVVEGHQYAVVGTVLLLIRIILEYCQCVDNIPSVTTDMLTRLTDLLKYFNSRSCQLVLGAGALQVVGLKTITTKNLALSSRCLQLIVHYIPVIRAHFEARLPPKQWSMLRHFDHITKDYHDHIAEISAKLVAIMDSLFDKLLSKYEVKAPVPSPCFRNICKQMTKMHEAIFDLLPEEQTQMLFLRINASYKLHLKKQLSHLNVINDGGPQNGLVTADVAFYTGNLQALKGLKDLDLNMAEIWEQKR
# UniProt Q60695: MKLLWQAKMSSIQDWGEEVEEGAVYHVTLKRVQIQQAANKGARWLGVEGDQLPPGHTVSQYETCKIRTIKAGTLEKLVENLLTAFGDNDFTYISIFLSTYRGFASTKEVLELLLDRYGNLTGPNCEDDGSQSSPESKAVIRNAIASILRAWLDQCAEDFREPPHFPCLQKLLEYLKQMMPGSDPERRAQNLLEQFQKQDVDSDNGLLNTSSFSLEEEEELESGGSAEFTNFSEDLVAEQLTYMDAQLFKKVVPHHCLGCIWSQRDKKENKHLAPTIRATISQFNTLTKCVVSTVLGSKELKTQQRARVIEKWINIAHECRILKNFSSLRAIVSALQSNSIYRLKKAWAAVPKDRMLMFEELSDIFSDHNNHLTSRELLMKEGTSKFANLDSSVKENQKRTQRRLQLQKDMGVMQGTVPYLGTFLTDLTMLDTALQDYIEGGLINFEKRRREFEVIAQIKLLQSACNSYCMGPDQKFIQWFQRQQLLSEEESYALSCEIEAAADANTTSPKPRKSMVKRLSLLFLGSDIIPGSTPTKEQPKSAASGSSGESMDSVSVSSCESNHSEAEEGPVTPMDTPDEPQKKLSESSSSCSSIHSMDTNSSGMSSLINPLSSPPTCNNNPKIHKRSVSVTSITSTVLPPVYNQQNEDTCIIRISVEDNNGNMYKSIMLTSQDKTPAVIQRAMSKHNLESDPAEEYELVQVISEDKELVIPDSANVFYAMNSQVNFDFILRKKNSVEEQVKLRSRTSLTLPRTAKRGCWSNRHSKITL
# UniProt Q61081: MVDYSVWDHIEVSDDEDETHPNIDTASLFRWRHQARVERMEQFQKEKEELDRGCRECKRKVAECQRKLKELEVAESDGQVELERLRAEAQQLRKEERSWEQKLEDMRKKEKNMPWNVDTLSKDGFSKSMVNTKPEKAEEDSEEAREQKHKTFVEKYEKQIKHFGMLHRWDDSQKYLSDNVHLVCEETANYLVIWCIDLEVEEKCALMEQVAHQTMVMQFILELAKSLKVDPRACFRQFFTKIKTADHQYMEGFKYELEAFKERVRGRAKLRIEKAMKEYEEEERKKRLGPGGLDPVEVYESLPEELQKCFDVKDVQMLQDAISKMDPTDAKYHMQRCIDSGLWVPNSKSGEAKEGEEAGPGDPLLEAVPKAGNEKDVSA
# UniProt Q60715: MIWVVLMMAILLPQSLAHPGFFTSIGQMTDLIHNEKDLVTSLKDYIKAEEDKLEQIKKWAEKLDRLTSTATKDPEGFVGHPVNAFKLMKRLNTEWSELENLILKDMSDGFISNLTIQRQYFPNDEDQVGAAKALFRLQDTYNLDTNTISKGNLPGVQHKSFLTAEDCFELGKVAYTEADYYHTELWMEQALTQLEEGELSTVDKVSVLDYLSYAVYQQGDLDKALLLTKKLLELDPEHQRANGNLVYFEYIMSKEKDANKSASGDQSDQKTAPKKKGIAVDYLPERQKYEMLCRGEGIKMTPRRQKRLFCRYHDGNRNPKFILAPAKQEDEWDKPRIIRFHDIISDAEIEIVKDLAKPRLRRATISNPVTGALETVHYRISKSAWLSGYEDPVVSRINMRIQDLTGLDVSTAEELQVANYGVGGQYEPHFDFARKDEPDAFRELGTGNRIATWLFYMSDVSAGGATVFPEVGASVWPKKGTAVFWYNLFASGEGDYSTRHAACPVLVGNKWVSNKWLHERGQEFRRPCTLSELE
# The other results are listed elsewhere or left out. Most entries show no effect beyond the scatter of the controls.
# Compound: CN[C@@H]1C[C@H]2O[C@@](C)([C@@H]1OC)n1c3ccccc3c3c4c(c5c6ccccc6n2c5c31)C(=O)NC4 [staurosporine]
# Experiment: log2 fold change of tryptic peptide abundance, ligand vs vehicle (limited proteolysis) (log2 ratio); higher = more trypsin-susceptible (destabilized)
# Conditions: ligand concentration: 20 uM; sample: mouse liver crude lysate; replicate design: treated separately
row,Target,log2 fold change
1,"UniProt Q5F2F2 (peptide sequence: TSVRDHEEQEVASGGPADQFSDRR, peptide start residue: 31)",-0.476
2,"UniProt Q60598 (peptide sequence: LAKHESQQDYAK, peptide start residue: 293)",-0.734
3,"UniProt Q5SUR0 (peptide sequence: GHLLYVPLSPGQHR, peptide start residue: 848)",-0.782
4,"UniProt Q61035 (peptide sequence: IFSIVEQR, peptide start residue: 389)",-0.583
5,"UniProt Q5ND29 (peptide sequence: LAAVQTQLR, peptide start residue: 161)",0.0762
6,"UniProt Q5YD48 (peptide sequence: KVTEGVVDVIVYPSAADK, peptide start residue: 158)",-0.248
7,"UniProt Q61211 (peptide sequence: GVSVLHTYQDHLWR, peptide start residue: 165)",-0.517
8,"UniProt Q60766 (peptide sequence: FYIVWTK, peptide start residue: 185)",0.125
9,"UniProt Q5RJG1 (peptide sequence: SLPEWLSDR, peptide start residue: 19)",-0.2
10,"UniProt Q61072 (peptide sequence: QPAQFPSRPPPPQPK, peptide start residue: 808)",-0.217
11,"UniProt Q5PRE5 (peptide sequence: DGEEITNEGK, peptide start residue: 167)",-0.17
12,"UniProt Q5SVR0 (peptide sequence: MTFLFANLKDRDFLVQR, peptide start residue: 373)",-0.495
13,"UniProt Q61153 (peptide sequence: LYVIQEGR, peptide start residue: 216)",-0.0823
14,"UniProt Q60838 (peptide sequence: VIYHLDEEETPYLVK, peptide start residue: 16)",-0.428
15,"UniProt Q5EBG8 (peptide sequence: DADLHHAACNMVK, peptide start residue: 102)",0.123
16,"UniProt Q5RJ54 (peptide sequence: LVQNSGLIEHDR, peptide start residue: 229)",-0.178

# Reformatted: entries from further up.
row	Target	log2 fold change
5	UniProt Q5ND29 (peptide sequence: LAAVQTQLR, peptide start residue: 161)	0.0762
16	UniProt Q5RJ54 (peptide sequence: LVQNSGLIEHDR, peptide start residue: 229)	-0.178

# Next part.

row,Target,log2 fold change
1,"UniProt Q5U405 (peptide sequence: NKPGVYTK, peptide start residue: 515)",-0.0357
2,"UniProt Q61191 (peptide sequence: APVTVTSLPASVR, peptide start residue: 512)",0.36
3,"UniProt Q5SV85 (peptide sequence: KEETPAEEQPKK, peptide start residue: 1252)",-0.715
4,"UniProt Q5SPW0 (peptide sequence: MLRDKIAQIDK, peptide start residue: 254)",0.717
5,"UniProt Q5HZJ0 (peptide sequence: LGQDDPTPSR, peptide start residue: 951)",0.338
6,"UniProt Q60722 (peptide sequence: LDDAIHVLR, peptide start residue: 431)",0.0133
7,"UniProt Q60695 (peptide sequence: CVVSTVLGSK, peptide start residue: 289)",0.194
8,"UniProt Q60674 (peptide sequence: NSYLCNTGGR, peptide start residue: 367)",0.547
9,"UniProt Q60610 (peptide sequence: VASHINEMQK, peptide start residue: 1307)",-0.0133
10,"UniProt Q60739 (peptide sequence: ATIEQFMK, peptide start residue: 290)",0.386
11,"UniProt Q61247 (peptide sequence: LIGQNDKADFHGGK, peptide start residue: 455)",-0.126
12,"UniProt Q5SWW4 (peptide sequence: FSSVSDGFSTDSTSHHGGK, peptide start residue: 348)",0.369
13,"UniProt Q61081 (peptide sequence: TADHQYMEGFK, peptide start residue: 244)",-1.16
14,"UniProt Q60715 (peptide sequence: GNLPGVQHK, peptide start residue: 151)",-0.171
15,"UniProt Q61239 (peptide sequence: VLVEWLK, peptide start residue: 174)",0.281
